Test results taken from PubChem BioAssay AID540276 (National Center for Advancing Translational Sciences (NCATS), 2011).
The whole screen tested about 300,000 compounds, of which about 5,400 (1.8%) were called active. The inconclusive results got no clear call from the source; some entries with a clear call stand among them for comparison. The call rests on the fitted dose curve; tested in HEK293 cells. A potency beside an inconclusive call is a rough fit, not a confirmed value.

Experiment: qHTS for inhibitors of binding or entry into cells for Marburg Virus
Settings: Marburg virus pseudotyped entry inhibition, cell reporter; activity change, negative = inhibition: at 37.8 µM (top of the series) unless noted
On the % scale 0 is the no-effect control and ±100 the full control effect; potency means the concentration at half of the fitted maximal effect.

Row | SMILES | Potency | activity change, negative = inhibition
1 | CS(=O)(=O)N1CCN=C1SCc1ccc([N+](=O)[O-])cc1 | inconclusive: 2 µM [activator, partial curve, poor fit] | 
2 | O=C(NC(=S)Nc1ccc2[nH]c(=O)[nH]c2c1)c1cccc(F)c1 | inconclusive: 0.562 µM [inhibitor, full curve, poor fit] | 
3 | CCC(=O)Nc1cc(-c2nc3ccccc3s2)c(Cl)cc1Cl |  | inactive: -2.36% [at 46.1 µM]
4 | Cc1oc(C(C)(C)C)cc1C(=O)Nc1cccc(C(=O)O)c1 | inconclusive: 0.058 µM [activator, full curve, poor fit] | 
5 | CC(=O)c1c(N=CN(C)C)nc(C)nc1-c1ccccc1 |  | inactive: -0.413%
6 | CCOc1ccc(NC(=O)CCNS(=O)(=O)c2cccc3nsnc23)cc1 | inconclusive: 7.94 µM [inhibitor, partial curve] | 
7 | CCc1c(C(C)S(=O)(=O)c2ccccc2)[nH]c(=O)n1CC (centres undefined) |  | inactive: 0.259% [at 46.1 µM]
8 | O=S(=O)(c1ccc(Cl)c(C(F)(F)F)c1)N1CCN(c2ccccn2)CC1 | inconclusive: 31.6 µM [inhibitor, single point] | 
9 | CCOC(=O)N1CCC(NC(=S)Nc2ccc3nc(N4CCN(C)CC4)cc(C)c3c2)CC1 | inconclusive: 14.1 µM [inhibitor, single point] | 
10 | O=c1cc(-c2ccc([N+](=O)[O-])cc2)nc2cc(-c3ccc(F)cc3)[nH]n12 |  | inactive: -5.06%
11 | Cc1cc(C)cc(NC(=O)c2cc(C)n(Cc3cccs3)c2C)c1 | inconclusive: 10 µM [inhibitor, partial curve, poor fit] | 
12 | CCSc1nnc(NC(=O)/C=C/c2ccc3c(c2)OCO3)s1 |  | inactive: 7.23%
13 | COc1ccc(CCC(=O)Nc2cccc(S(=O)(=O)N3CCCCCC3)c2)cc1 | inconclusive: 35.5 µM [inhibitor, single point] | 
14 | O=C(CSc1ccc(Cl)cc1)Nc1ccccc1N1CCN(C(=O)c2ccccc2)CC1 | inconclusive: 11.2 µM [inhibitor, partial curve, poor fit] | 
15 | CCOC(=O)c1c(NC(=O)c2cc3ccccc3c(=O)o2)sc2c1CCC(C(C)(C)C)C2 (centres undefined) |  | inactive: -1.77% [at 46.1 µM]
16 | C/C(=N\NC(=O)c1cccnc1)c1nnn(-c2nonc2N)c1C | inconclusive: 0.082 µM [inhibitor, full curve, poor fit] | 
17 | CC(C)CC(c1nnnn1C1CCCC1)N1CCN(C(=O)c2ccco2)CC1 (centres undefined) |  | inactive: 2.65%
18 | CN(C)c1cc[n+](CC(=O)Nc2ccc(OC(F)F)cc2)cc1 | inconclusive: 22.4 µM [inhibitor, single point] | 
19 | O=[N+]([O-])c1cc(-c2n[nH]c(-c3ccccc3)n2)cc([N+](=O)[O-])c1 | inconclusive: 25.9 µM [inhibitor, single point] | 
20 | O=C(NCC(O)c1ccccc1)c1cccc(S(=O)(=O)N2CCOCC2)c1 (centres undefined) | inconclusive: 35.5 µM [activator, single point] | 
21 | Cc1ccc(S(=O)(=O)N2CCCCC2)cc1NC(=O)COC(=O)c1ccccc1F |  | inactive: -0.234% [at 46.1 µM]
22 | Cc1ccc(C)c(NC(=O)NCc2ccccn2)c1 | inconclusive: 2.82 µM [activator, full curve, poor fit] | 

Copied from the entries so far (two entries):
Row | SMILES | Potency | activity change, negative = inhibition
12 | CCSc1nnc(NC(=O)/C=C/c2ccc3c(c2)OCO3)s1 |  | inactive: 7.23%
13 | COc1ccc(CCC(=O)Nc2cccc(S(=O)(=O)N3CCCCCC3)c2)cc1 | inconclusive: 35.5 µM [inhibitor, single point] | 

Continued.

Row | SMILES | Potency | activity change, negative = inhibition
23 | CC(=O)n1cc(/C=N/NC(=O)c2sc(C)nc2C)c2ccccc21 |  | inactive: -16.5%
24 | O=[N+]([O-])c1c(Nc2ccccc2O)cc(Cl)c2nonc12 | inconclusive: 10 µM [inhibitor, partial curve, poor fit] | 
25 | COc1ccc(C2c3cc4c(cc3OC(N3CCOCC3)C2C)OCO4)c(OC)c1 (centres undefined) | inconclusive: 7.94 µM [inhibitor, partial curve, poor fit] | 
26 | Cc1ccc(/C=N/NC(=O)c2sccc2OCc2ccc(F)cc2)cc1 | inconclusive: 5.62 µM [inhibitor, full curve, poor fit] | 
27 | O=C(N/N=C\c1ccc(CNS(=O)(=O)c2ccccc2)o1)C(=O)Nc1ccc(F)cc1 |  | inactive: -14.1%
28 | CCCCc1cc(=O)oc2cc(C)cc(OC(C)C(=O)NCc3cccnc3)c12 (centres undefined) |  | inactive: -16.6% [at 46.1 µM]
29 | O=C(CSC1=NS(=O)(=O)c2cc(F)ccc2N1)Nc1ccccc1 |  | inactive: 11.6%
30 | O=C(N/N=C/c1ccc(Br)s1)c1ccco1 | inconclusive: 2.51 µM [inhibitor, full curve] | 
31 | Cc1ccc(Nc2nc(N)nc(CSc3nnnn3-c3ccccc3)n2)cc1 | inconclusive: 32.6 µM [inhibitor, single point] | 
32 | COc1ccc(-c2noc(CN(C)S(=O)(=O)c3ccc(Cl)cc3)n2)cc1OC | inconclusive: 10.3 µM [inhibitor, partial curve, poor fit] | 
33 | COc1ccc(NC(=O)Cc2c[nH]c3ccccc23)cc1S(=O)(=O)N1CCOCC1 | inconclusive: 10 µM [activator, partial curve] | 
34 | CCCOc1ccc(CN(CCC#N)C(=S)NC(=O)c2ccccc2)cc1 | inconclusive: 10 µM [inhibitor, partial curve, poor fit] | 
35 | O=C(Nc1ccccc1)N1CCCC2CCCCC21 (centres undefined) | inconclusive: 22.4 µM [activator, partial curve, poor fit] | 
36 | OCC1(Cc2ccccc2)CCCN(Cc2cn[nH]c2-c2ccccc2)C1 (centres undefined) | inconclusive: 35.5 µM [inhibitor, single point] | 
37 | COc1ccc(C(=O)N2CCCC2)cc1 |  | inactive: 8.03%
38 | COc1ccc(CN(C)C(=O)CC(c2ccccc2)c2ccccc2)cc1 | inconclusive: 10 µM [inhibitor, partial curve, poor fit] | 
39 | CCOc1cc2[nH]c(=S)n(Cc3ccc(C(=O)NCCN(CC)CC)cc3)c(=O)c2cc1OCC | active: 10 µM | 
40 | O=C(Nc1cccc([N+](=O)[O-])c1)Nc1ccc(Cl)cn1 | inconclusive: 3.98 µM [activator, full curve, poor fit] | 
41 | CCSc1nnc(NC(=O)C2CCCCC2C(=O)O)s1 (centres undefined) | inconclusive: 5.01 µM [activator, partial curve] | 
42 | C=CCOc1ccc2c(c1)C(=NO)c1cc(OCC=C)ccc1-2 |  | inactive: -0.406%
43 | CC(=O)Nc1sc(N/N=C\c2ccccc2Cl)nc1-c1cccs1 |  | inactive: -15.6%
44 | CC1(C)Cc2ccccc2-c2nc(-c3ccccc3)oc(=O)c21 | inconclusive: 14.1 µM [activator, single point] | 
